Tested on: efflux and porin genes (acrAB-tolC, emrAB-tolC, ompC, ompF) in E. coli K12 cells
Experiment: Gene expression analysis by real-time qPCR
Type: cell-based, Escherichia coli
Details: E. coli K12 cells treated with ¼ MIC

## O=C(O)c1cn(C2CC2)c2cc(N3CCNCC3)c(F)cc2c1=O [Ciprofloxacin, reference compound]
  gene expression of efflux pumps and porins: acrAB-tolC and emr AB-tolC activation and ompC and ompF down-regulation

Source: patent US11434227B2, “Broad spectrum antibacterial activity of novel bisbenzimidazoles targeting topoisomerase IA and the synergistic composition of bisbenzimidazole with efflux pump inhibitors against pathogenic bacteria” (Jawaharlal Nehru University (JNU), priority 2016, dated 2022)
